Reference: publication PMC2662408

Molecular target: T1, HP1c (Drosophila (endogenous in embryos)) (UniProt Q9VCU6)
T1 sequence: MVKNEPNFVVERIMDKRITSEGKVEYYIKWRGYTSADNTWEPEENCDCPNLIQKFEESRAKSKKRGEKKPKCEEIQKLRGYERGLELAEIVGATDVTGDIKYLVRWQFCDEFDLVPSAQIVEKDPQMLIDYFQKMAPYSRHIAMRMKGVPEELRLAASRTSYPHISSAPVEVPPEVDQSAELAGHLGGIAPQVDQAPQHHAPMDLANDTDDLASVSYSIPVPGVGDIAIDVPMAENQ
Test: co-IP; 30 µl nuclear extract of early Drosophila embryos (0–12 h, TRAX) with α-HP1c (2G2), α-Woc or buffer overnight at 4°C in BC200; protein A/G sepharose; washed with BC300; western blotting

Woc (Drosophila (endogenous in embryos))
binding: binds

No constants are given. Whether binding was seen depends on the method and setting. Binding seen in cells or lysates may run through a third protein. A result given as binding can be weak or reduced; the word gives no strength.
